Laboratory results: the supplement of paper PMC12009310
Values joined by “and” are separate entries in the source; they are usually repeats but may differ in a detail not shown here. Equal entries are not always repeated. Structures can show the parent of a compound that is named as a salt. ± gives the standard deviation of the averaged measurements. This is one part of the list. Part of the spread comes from offsets between plates or batches.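 The cells are a mouse kidney inner medullary collecting duct line, silenced either for the ciliary gene Rpgrip1l or with a non-targeting control siRNA.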

Columns and labels:
[1] = test system: mIMCD3; assay: robust z score of cell number vs plate controls; higher = more cells (less cytotoxic); conditions: 10 µM, 48 h
[2] = test system: mIMCD3; assay: robust z score of cilia incidence (% cells with single cilium) vs plate controls; higher = more ciliated cells; conditions: 10 µM; 48 h; siRNA: siScr
[3] = test system: mIMCD3; assay: robust z score of cilia incidence (% cells with single cilium) vs plate controls; higher = more ciliated cells (rescue of cilia loss); conditions: 10 µM; 48 h; siRNA: siRpgrip1l

| SMILES | robust z score of cell number ([1]; siRNA: siRpgrip1l) | robust z score of cell number ([1]; siRNA: siScr) | robust z score of cilia incidence [2] | robust z score of cilia incidence [3] |
| --- | --- | --- | --- | --- |
| CCC(=O)NC1Cc2ccccc2C(c2ccccc2)C1 (stereo not drawn) | -3.15 ± 3.7 | 1.55 ± 1.5 | 0.0355 ± 2 | -15.8 ± 2.9 |
| O=C(O)c1cc(=O)c2c(Cl)cc(Cl)cc2[nH]1 [5,7-Dichlorokynurenic acid] | 0.533 ± 2.7 | 3.99 ± 1.5 | -0.303 ± 2.3 | -8.08 ± 7.8 |
| NCC(O)(CS(=O)(=O)O)c1ccc(Cl)cc1 (stereo not drawn) [2-Hydroxysaclofen] | 5.47 ± 7.5 | 8.47 ± 5.3 | 2.68 ± 1.6 | -6.41 ± 3.6 |
| O=[N+]([O-])c1cc(Cl)ccc1S(=O)(=O)N1CCN(Cc2ccccc2)CC1 | -8.94 ± 6 | -2.08 ± 1.3 | -0.665 ± 2.5 | -10.8 ± 2.6 |
| N[C@@H](Cn1ccc(=O)n(Cc2ccccc2C(=O)O)c1=O)C(=O)O | 1.04 and 1.9 | – | 1.18 and 1.51 | -11.7 and -11.4 |
| CN1CCC(=C2c3ccccc3C=Cc3ccccc32)CC1 [Cyproheptadine hydrochloride] | 7.21 ± 10 | 0.38 ± 9.1 | -10 ± 5.1 | -15.1 ± 5 |
